Results deposited as PubChem BioAssay AID1259281 (Sanger Institute, 2017)
Here is one part, drawn at random, of 794 deposited reagents. Over the whole deposit, 22 (2.8%) got an active call. 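Calls rest on knock-down alone only; drug synergy scores play no part in them.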 No viability above 1 is reported: the scale is capped. Reagent sequences are not shown. The record does not give: the amount of reagent, the time to read-out.

- Purpose: 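Identify essential genes and drug-enhancing knock-downs among kinases and common colorectal mutated genes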 (primary screen)
- Cell system: human COLO678 colorectal cancer cell line
- Reagents: siRNA pool against human genes
- Conditions: anchor drugs at fixed doses: BYL719 1 µM, cetuximab 5 µg/ml or trametinib 10 nM; DMSO vehicle for the siRNA-alone arm
- Measurement: 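Cell viability compared with non-targeting pool wells, averaged over replicates; knock-down-alone effect also as robust z-score; synergy scores set knock-down plus drug against expected joint effect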
- Reading the numbers: robust z-score, siRNA alone: higher = more viable cells; strongly negative means essential; viability, siRNA alone: higher = more surviving cells; synergy score with BYL719 and synergy score with trametinib and synergy score with cetuximab: higher = stronger synergistic killing with drug
- Hit rule: 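Called essential (knock-down alone) if knock-down by itself drops cell number to a robust z-score under -3; all others no change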
- Meaning of the calls: active = essential (knock-down alone); inactive = no change

| gene | PubChem SID | robust z-score, siRNA alone | viability, siRNA alone (fraction of control) | synergy score with BYL719 | synergy score with trametinib | synergy score with cetuximab | Call |
| --- | --- | --- | --- | --- | --- | --- | --- |
| DBF4 | SID135620786 | -0.478 | 0.97 | -0.0326 | -0.0294 | -0.0358 | inactive |
| FLT1 | SID152149290 | 0.473 | 1 | 0.0448 | -0.00851 | -0.0681 | inactive |
| MAST4 | SID135625002 | 0.473 | 1 | -0.0919 | -0.0144 | -0.0458 | inactive |
| SBK1 | SID152154198 | 0.473 | 1 | -0.0919 | -0.0138 | -0.0681 | inactive |
| GRK6 | SID135620853 | 0.473 | 1 | 0.0905 | 0.0692 | -0.00584 | inactive |
| NUCKS1 | SID152150801 | 0.473 | 1 | -0.0919 | 0.00339 | -0.0617 | inactive |
| DAPK2 | SID152156399 | 0.214 | 0.992 | 0.0679 | -0.0388 | -0.0056 | inactive |
| DNMT3A | SID251761412 | 0.473 | 1 | -0.0919 | 0.0174 | 0.013 | inactive |
| PRKCA | SID56478672 | 0.473 | 1 | -0.0696 | 0.0625 | 0.032 | inactive |
| STK33 | SID56479053 | 0.473 | 1 | 0.0213 | 0.0757 | 0.0332 | inactive |
| PCK2 | SID56479157 | 0.473 | 1 | 0.00229 | 0.0132 | -0.00191 | inactive |
| ADCK1 | SID135620966 | 0.473 | 1 | -0.0273 | -0.00984 | 0.0152 | inactive |
| DCLK3 | SID152149137 | -0.588 | 0.966 | -0.123 | -0.0345 | -0.0578 | inactive |
| DGKG | SID152147412 | 0.473 | 1 | -0.0281 | 0.0121 | 0.00805 | inactive |
| BCR | SID152154242 | -4.31 | 0.848 | -0.0696 | -0.0562 | -0.0449 | active |
| EFNA3 | SID135623696 | 0.473 | 1 | -0.0919 | -0.015 | -0.0522 | inactive |
| DIS3 | SID134319450 | 0.473 | 1 | 0.0321 | -0.000741 | 0.0689 | inactive |
| AK2 | SID56479162 | 0.473 | 1 | -0.0208 | 0.0179 | 0.0271 | inactive |
| CDKN1A | SID56478654 | 0.473 | 1 | -0.013 | -0.0314 | 0.00456 | inactive |
| FGR | SID135620620 | 0.473 | 1 | 0.0108 | -0.0232 | 0.0651 | inactive |
| BMX | SID152147462 | 0.473 | 1 | -0.00254 | 0.0361 | -0.0154 | inactive |
| KRAS | SID134310727 | -5.55 | 0.809 | 0.0109 | 0.00462 | -0.073 | active |
| DCK | SID56479088 | 0.0954 | 0.988 | 0.117 | 0.0408 | -0.00965 | inactive |
| EFNA5 | SID152151552 | 0.473 | 1 | -0.0919 | 0.0378 | 0.0137 | inactive |
| TAF1L | SID152155360 | 0.473 | 1 | -0.0541 | 0.0454 | 0.0144 | inactive |
| ACVRL1 | SID152155046 | 0.473 | 1 | -0.0853 | -0.0028 | -0.035 | inactive |
| TSSK2 | SID56479050 | 0.473 | 1 | -0.0416 | 0.0781 | 0.0243 | inactive |
| ITPK1 | SID56479109 | 0.473 | 1 | -0.0248 | -0.0614 | 0.0244 | inactive |
| FRK | SID56478519 | 0.0496 | 0.987 | -0.0449 | 0.0506 | -0.0762 | inactive |
| PSKH2 | SID56479040 | 0.473 | 1 | 0.0665 | 0.0509 | 0.0081 | inactive |
| CDKL5 | SID135620888 | 0.473 | 1 | -0.0919 | 0.0188 | -0.0358 | inactive |
| TSSK1B | SID56478967 | 0.473 | 1 | -0.0113 | 0.0161 | -0.0237 | inactive |
| GUCY2F | SID152150427 | 0.473 | 1 | -0.0919 | 0.0207 | 0.0796 | inactive |
| CMPK1 | SID56478766 | 0.473 | 1 | 0.125 | 0.00112 | -0.0207 | inactive |
| TESK2 | SID135620925 | 0.473 | 1 | 0.0308 | 0.0765 | 0.00288 | inactive |
| N4BP2 | SID152151934 | 0.473 | 1 | 0.0411 | 0.0399 | -0.012 | inactive |
| MUSK | SID56478536 | -2.89 | 0.893 | -0.0452 | 0.0233 | 0.0305 | inactive |
| SNRK | SID152154333 | -1.15 | 0.948 | 0.0636 | -0.0234 | -0.00458 | inactive |
| MAP3K5 | SID56478697 | -0.383 | 0.973 | 0.0531 | -0.00986 | -0.0361 | inactive |
| MAP3K15 | SID152147179 | 0.473 | 1 | 0.0417 | 0.0193 | 0.0339 | inactive |
| PKIA | SID56479258 | 0.473 | 1 | 0.104 | 0.0614 | -0.0184 | inactive |
| PRKAR1A | SID135621428 | 0.473 | 1 | -0.0281 | -0.049 | -0.0264 | inactive |
| PRKAA1 | SID152155693 | 0.473 | 1 | 0.0394 | -0.026 | -0.0681 | inactive |
| UCK2 | SID56478981 | -2.9 | 0.893 | -0.189 | -0.0185 | -0.129 | inactive |
| MYLK4 | SID152150692 | -1.25 | 0.945 | -0.0998 | -0.0479 | -0.0142 | inactive |
| ABL2 | SID152153611 | -2.53 | 0.905 | -0.113 | -0.1 | -0.108 | inactive |
| FASTK | SID56479004 | -2.39 | 0.909 | -0.174 | -0.0837 | -0.129 | inactive |
| ALPK3 | SID152152513 | 0.473 | 1 | -0.0919 | -0.00926 | 0.000739 | inactive |
| JAK1 | SID152154758 | 0.473 | 1 | 0.067 | 0.0726 | -0.00691 | inactive |
| UHMK1 | SID152150381 | -0.324 | 0.975 | -0.115 | -0.0103 | -0.023 | inactive |

A stretch taken from the entries so far, for reference:
| gene | PubChem SID | robust z-score, siRNA alone | viability, siRNA alone (fraction of control) | synergy score with BYL719 | synergy score with trametinib | synergy score with cetuximab | Call |
| --- | --- | --- | --- | --- | --- | --- | --- |
| KRAS | SID134310727 | -5.55 | 0.809 | 0.0109 | 0.00462 | -0.073 | active |
| DCK | SID56479088 | 0.0954 | 0.988 | 0.117 | 0.0408 | -0.00965 | inactive |
| EFNA5 | SID152151552 | 0.473 | 1 | -0.0919 | 0.0378 | 0.0137 | inactive |
